# Assay results taken from US12630498B2 (Genzyme Corporation, priority 2019, dated 2026).
# Chains of the proteins cited; added tags and fusions are not shown. A line that says so, or that is headed by a name, gives the form on record, which may keep a tag or linker.
# UniProt P13569, with tags, fused parts or gaps DEL508-508: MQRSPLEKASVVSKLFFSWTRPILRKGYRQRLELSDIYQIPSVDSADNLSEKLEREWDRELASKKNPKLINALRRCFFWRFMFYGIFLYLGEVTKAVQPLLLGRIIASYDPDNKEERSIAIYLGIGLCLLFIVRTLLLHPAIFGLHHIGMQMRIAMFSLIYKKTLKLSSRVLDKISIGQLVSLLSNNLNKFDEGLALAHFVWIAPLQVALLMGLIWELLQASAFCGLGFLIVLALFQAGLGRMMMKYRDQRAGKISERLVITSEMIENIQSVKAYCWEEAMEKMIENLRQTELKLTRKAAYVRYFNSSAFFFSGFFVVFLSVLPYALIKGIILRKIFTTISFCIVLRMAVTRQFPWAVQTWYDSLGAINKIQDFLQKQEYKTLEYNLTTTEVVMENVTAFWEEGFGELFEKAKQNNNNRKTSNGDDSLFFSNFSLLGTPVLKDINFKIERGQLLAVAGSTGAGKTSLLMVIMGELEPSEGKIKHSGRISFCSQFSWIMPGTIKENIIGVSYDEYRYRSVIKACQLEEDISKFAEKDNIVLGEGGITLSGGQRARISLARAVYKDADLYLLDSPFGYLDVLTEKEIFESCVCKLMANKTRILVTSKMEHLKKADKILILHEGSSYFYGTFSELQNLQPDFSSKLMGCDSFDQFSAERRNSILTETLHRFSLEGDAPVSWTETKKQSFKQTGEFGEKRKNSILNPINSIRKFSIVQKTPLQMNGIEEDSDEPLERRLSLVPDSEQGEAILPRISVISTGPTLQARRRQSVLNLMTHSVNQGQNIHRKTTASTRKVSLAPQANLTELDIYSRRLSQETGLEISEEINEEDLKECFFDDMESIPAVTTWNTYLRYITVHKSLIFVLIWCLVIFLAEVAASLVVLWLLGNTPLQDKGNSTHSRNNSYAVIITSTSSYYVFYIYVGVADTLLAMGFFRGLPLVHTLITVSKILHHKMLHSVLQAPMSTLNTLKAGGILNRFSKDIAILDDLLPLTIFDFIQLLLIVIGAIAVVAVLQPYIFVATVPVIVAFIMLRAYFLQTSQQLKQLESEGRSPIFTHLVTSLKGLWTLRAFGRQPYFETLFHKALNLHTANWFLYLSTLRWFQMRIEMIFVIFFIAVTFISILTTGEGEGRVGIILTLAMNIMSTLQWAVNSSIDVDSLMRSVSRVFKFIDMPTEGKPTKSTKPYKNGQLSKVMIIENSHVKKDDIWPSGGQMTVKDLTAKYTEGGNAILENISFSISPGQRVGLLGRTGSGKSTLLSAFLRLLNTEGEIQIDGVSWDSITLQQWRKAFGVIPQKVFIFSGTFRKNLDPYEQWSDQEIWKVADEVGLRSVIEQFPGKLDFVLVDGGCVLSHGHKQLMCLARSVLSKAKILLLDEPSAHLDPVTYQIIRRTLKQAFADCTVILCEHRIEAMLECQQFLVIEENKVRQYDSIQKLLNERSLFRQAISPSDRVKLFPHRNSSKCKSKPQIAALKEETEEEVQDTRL
# The structures given here were assigned with low confidence; some may be wrong.
# How the values were obtained:
# [1] = biological target: human Cystic Fibrosis Transmembrane Conductance Regulator (CFTR) harboring the ΔF508 mutation (Homo sapiens, UniProt P13569, DEL508-508); assay: H441 cell ΔF508-CFTR-HRP cell surface assay (Emax and EC50); assay type: cell-based; settings: for H441 cell Emax (%): NA = Not active; for EC50: read-out: H441 cell EC50
# [2] = biological target: CFTR-mediated transepithelial chloride transport in primary human bronchial epithelial cells from a ΔF508 homozygous CF donor (Homo sapiens, UniProt P13569, DEL508-508); assay: TECC24 recording of CFTR-mediated transepithelial chloride transport in CF-HBE cells (AUC fold over DMSO); settings: test agent 10 μM, 48 hours incubation, AUC of forskolin-stimulated IEQ relative to DMSO
H441 cell Emax (%) [1],EC50 [1],TECC24 AUC fold over DMSO @10 μM [2],SMILES
60.6%,8500 nM,–,CC(C)(C)[C@H](NC(=O)c1ccc2ccccc2c1OCc1nc(C(F)(F)F)cs1)C(=O)O
214.1%,1500 nM,C (“C” refers to AUC @10 uM <4),C[C@H](OCc1ccccc1)[C@H](NC(=O)c1ccc2cc(F)ccc2c1OCc1ccc(C(F)(F)F)cc1)C(=O)O
90.4%,1300 nM,C (“C” refers to AUC @10 uM <4),CC1(C(NC(=O)c2ccc3ccccc3c2OCc2ccc(SC(F)(F)F)cc2)C(=O)O)CC1 (centres unmarked)
